# Experiment: pH control in 6 L vessel with DuoClear 15 electrolytic chlorinator
smiles,measurement,setting,value
[Cl-].[Cl-].[Zn+2] [zinc chloride],initial pH after addition and mixing,"6.28 g one-time batch addition to 6 L, mixed overnight, pH reduced from 7.9",6.0
same,increase in pH,"Example 1: 6.28 g batch addition, 60 minutes of chlorinator operation",approximately 1.25 pH units
same,net increase in pH,"Example 2: 12.2 mM aqueous solution at 10.5 ml/min, 60 minutes of operation",about 0.8 pH units
same,pH increase,"Example 3: 25 mM solution at 10.2 ml/min, 60 minutes of operation",about 0.2 pH units

# From patent US20090294381A1, “METHODS FOR CONTROLLING PH IN WATER SANITIZED BY CHEMICAL OR ELECTROLYTIC CHLORINATION” (ZODIAC POOL CARE, INC., priority 2005, published 2009)
